Laboratory results from patent US9283208B2, “Medicaments and methods for treating cancer” (NIIKI PHARMA INC., priority 2011, dated 2016).
For at least one compound, name, drawing or mass did not settle the structure.

Test system: patients with advanced solid tumors refractory to treatment
Assay: Infusional fever with or without steroid premedication (US trial)
Format: in vivo, human
Conditions: decadron 4-10 mg IV as premedication before the test drug
Description: Thereafter, in the US trial, in some patients, premedication of decadron (dexamethasone) was administered, with or without 5HT3 antagonists (serotonin antagonists) like ondansetron and granisetron. The decadron was given to prevent fever, at 4-10 mg IV. […] None of the patients premedicated with decadron had any incidence of infusion-related fever.

With `C[C@@H]1C[C@H]2[C@@H]3CCC4=CC(=O)C=C[C@]4(C)[C@@]3(F)[C@@H](O)C[C@]2(C)[C@@]1(O)C(=O)CO` [decadron, dexamethasone, reference compound] the “prevention of infusional fever of the test drug” value was “effective in preventing infusional fever”.
